According to PMC11871461:
No constants are given. Whether binding was seen depends on the method and setting. In cells and extracts the contact can be indirect. Some results given as binding are weak or reduced against the parent protein; the word gives no strength. For some assays here: Tags and fused reporters may be left off the sequences shown.

By UniProt entry, the sequences of proteins in these tests, tags left out.
UniProt Q6ZNE5: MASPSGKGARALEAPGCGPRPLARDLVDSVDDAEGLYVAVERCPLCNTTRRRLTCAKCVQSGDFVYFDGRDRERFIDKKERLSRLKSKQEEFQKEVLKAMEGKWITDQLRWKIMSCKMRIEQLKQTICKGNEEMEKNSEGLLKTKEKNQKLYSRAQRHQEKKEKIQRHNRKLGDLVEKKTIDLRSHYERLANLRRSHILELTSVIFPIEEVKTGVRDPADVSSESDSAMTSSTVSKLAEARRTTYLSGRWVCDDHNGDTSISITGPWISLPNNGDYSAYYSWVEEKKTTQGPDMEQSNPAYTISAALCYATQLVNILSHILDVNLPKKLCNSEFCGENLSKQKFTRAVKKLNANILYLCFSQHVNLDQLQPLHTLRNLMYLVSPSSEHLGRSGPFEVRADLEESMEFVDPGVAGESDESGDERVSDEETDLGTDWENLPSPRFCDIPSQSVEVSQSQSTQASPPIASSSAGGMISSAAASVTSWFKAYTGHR

What was measured:
USP1 in PANC-1 cells = biological target: T1, USP1 in PANC-1 cells (UniProt O94782); test: co-IP; PANC-1 cells; lysed in IP lysis buffer; anti-HA/Myc magnetic beads at 4 °C overnight; Western blot; bait not given
T1 sequence: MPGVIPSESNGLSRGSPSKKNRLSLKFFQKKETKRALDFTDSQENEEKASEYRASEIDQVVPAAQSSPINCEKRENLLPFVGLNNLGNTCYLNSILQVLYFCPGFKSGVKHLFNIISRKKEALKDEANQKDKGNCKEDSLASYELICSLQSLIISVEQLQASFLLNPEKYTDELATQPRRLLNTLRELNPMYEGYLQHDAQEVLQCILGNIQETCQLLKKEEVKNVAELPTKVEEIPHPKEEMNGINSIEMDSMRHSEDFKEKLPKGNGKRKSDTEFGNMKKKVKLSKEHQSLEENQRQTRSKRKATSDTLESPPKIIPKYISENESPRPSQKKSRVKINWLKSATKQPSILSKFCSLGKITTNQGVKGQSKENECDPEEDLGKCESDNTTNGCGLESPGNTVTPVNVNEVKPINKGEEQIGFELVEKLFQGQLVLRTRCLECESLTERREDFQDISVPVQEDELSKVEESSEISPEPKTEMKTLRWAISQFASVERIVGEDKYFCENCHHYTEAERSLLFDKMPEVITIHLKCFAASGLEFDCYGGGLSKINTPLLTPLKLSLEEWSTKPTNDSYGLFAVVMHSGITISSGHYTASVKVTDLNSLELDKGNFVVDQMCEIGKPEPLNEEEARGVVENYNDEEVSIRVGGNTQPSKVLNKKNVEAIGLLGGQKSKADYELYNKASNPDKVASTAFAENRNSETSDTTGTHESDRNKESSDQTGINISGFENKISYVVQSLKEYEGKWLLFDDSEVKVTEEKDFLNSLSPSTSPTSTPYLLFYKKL

[1] = biological target: T2, HA-tagged USP1 (ubiquitin-specific peptidase 1), WT (UniProt O94782); test: co-IP; HEK-293T cells transfected with the indicated plasmids; lysed in IP lysis buffer; USP1 precipitated (anti-HA magnetic beads) at 4 °C overnight; Western blot
T2 sequence: T1 sequence

binding (USP1 in PANC-1 cells) | binding [1] | Substance
binds |  | ATG14 in PANC-1 cells (from UniProt Q6ZNE5 1-492)
 | binds | Myc-ATG14 (autophagy-related gene 14) (from UniProt Q6ZNE5 1-492)
